The target of this experiment is Flag-tagged IDO1 (indoleamine 2,3-dioxygenase 1) (UniProt P14902). The experiment in a line: affinity purification with mass spectrometry; A549 cells transfected with Flag-IDO1; extracts in 0.2 mM EDTA, 50 mM Tris-HCl, 150 mM NaCl, 0.3% NP-40; anti-Flag affinity beads at 4°C overnight, elution with Flag peptide, 10% SDS-PAGE, silver staining, band identified by mass spectrometry.

Sequences of proteins named here, by UniProt entry; tags and fusion partners are left off.
UniProt P14902: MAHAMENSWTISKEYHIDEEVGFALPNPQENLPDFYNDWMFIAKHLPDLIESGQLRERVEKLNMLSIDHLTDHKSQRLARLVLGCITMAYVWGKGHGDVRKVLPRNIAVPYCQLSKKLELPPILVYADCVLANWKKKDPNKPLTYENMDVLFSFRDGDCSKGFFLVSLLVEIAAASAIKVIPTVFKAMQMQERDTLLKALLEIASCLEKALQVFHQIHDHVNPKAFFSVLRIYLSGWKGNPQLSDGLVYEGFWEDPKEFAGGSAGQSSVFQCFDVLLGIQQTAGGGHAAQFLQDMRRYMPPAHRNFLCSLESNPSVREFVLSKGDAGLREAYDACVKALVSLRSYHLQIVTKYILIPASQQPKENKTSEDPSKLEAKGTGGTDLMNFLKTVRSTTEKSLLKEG

Results are given in words; binding and its absence hold for the method and conditions named. In cells and extracts the contact can be indirect. These calls come from enrichment with a bait or labelling near it, and not all partners need be listed.

B1: GBP1 (protein, UniProt P32455 1-592)
chain: MASEIHMTGPMCLIENTNGRLMANPEALKILSAITQPMVVVAIVGLYRTGKSYLMNKLAGKKKGFSLGSTVQSHTKGIWMWCVPHPKKPGHILVLLDTEGLGDVEKGDNQNDSWIFALAVLLSSTFVYNSIGTINQQAMDQLYYVTELTHRIRSKSSPDENENEVEDSADFVSFFPDFVWTLRDFSLDLEADGQPLTPDEYLTYSLKLKKGTSQKDETFNLPRLCIRKFFPKKKCFVFDRPVHRRKLAQLEKLQDEELDPEFVQQVADFCSYIFSNSKTKTLSGGIQVNGPRLESLVLTYVNAISSGDLPCMENAVLALAQIENSAAVQKAIAHYEQQMGQKVQLPTETLQELLDLHRDSEREAIEVFIRSSFKDVDHLFQKELAAQLEKKRDDFCKQNQEASSDRCSALLQVIFSPLEEEVKAGIYSKPGGYRLFVQKLQDLKKKYYEEPRKGIQAEEILQTYLKSKESMTDAILQTDQTLTEKEKEIEVERVKAESAQASAKMLQEMQRKNEQMMEQKERSYQEHLKQLTEKMENDRVQLLKEQERTLALKLQEQEQLLKEGFQKESRIMKNEIQDLQTKMRRRKACTIS
Consider B1, for which the binding entry was “binds”.
